# In patent US20120052099A1, “PHARMACEUTICAL COMPOSITION CONTAINING ARBIDOL IN THE FORM OF PHOSPHOLIPID NANOPARTICLES” (priority 2009, published 2012):
# Where a name gives a salt, the structure may show the parent alone. Read-outs that look alike come from different tables or passages of the source. For some of these results: At least one read-out could not be matched to a standard name with certainty. For some of these results: For at least one compound, name, drawing or mass did not settle the structure.
# Experiments:
# flu A and B viruses = conditions: cited from earlier work
# [1] = used internally, cited from earlier work
# virus AAii/2/69 = assay: Model of influenza virus pneumonia in mice; assay type: in vivo; conditions: infected mice, 25 and 40 mg/kg of Arbidol perorally every day
smiles,measurement,setting,value
"CCOC(=O)c1c(CSc2ccccc2)n(C)c2cc(Br)c(O)c(CN(C)C)c12 [Arbidol, ethyl ester of 6-bromo-5-hydroxy-1-methyl-4-dimethylaminomethyl-2-phenylthiomethylindole-3-carbonic acid hydrochloride monohydrate]",inhibition of flu A and B viruses,flu A and B viruses,specifically inhibits flu A and B viruses
same,time to reach Cmax in the blood,[1]; 50 mg dose,≤ 1.2 h
same,time to reach Cmax in the blood,[1]; 100 mg dose,≤ 1.5 h
same,average lifetime of the animals in comparison with the control group,virus AAii/2/69,longer average lifetime
